Results as given in PMC11424930.
No constants are given. Whether binding was seen depends on the method and setting. Binding seen in cells or lysates may run through a third protein. A result given as binding can be weak or reduced; the word gives no strength. Tags and fused reporters may be left off the sequences shown. Blank lines part the entries; values can stand above or below the binder they belong to.

Amino acid sequences for entries named in this document (tags omitted). A change or cut given only in a name is not applied to a line headed by its entry.
UniProt Q9UUE3: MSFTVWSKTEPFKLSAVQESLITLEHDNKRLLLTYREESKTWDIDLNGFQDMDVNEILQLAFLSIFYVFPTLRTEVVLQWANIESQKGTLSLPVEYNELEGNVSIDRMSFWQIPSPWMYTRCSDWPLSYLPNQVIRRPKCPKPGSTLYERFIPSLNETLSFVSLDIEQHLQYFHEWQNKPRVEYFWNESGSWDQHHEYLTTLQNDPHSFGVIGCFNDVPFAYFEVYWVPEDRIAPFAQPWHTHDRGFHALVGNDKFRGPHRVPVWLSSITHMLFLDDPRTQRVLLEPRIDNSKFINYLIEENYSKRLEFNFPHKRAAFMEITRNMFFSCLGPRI

What was measured:
Experiment in all cases: co-IP; TAP-tagged Sib3 or a derivative captured on IgG-Sepharose 6 Fast-Flow beads (2 h, 4°C) from whole-cell extracts of S. pombe sib2Δ sib3Δ cells co-expressing GFP-tagged Sib2 or a derivative; cells treated with the iron chelator Dip (250 μM; 90 min or 3 h as printed); lysis buffer 50 mM HEPES pH 7.5, 140 mM NaCl, 1% Triton X-100; washes with 500 mM NaCl and 250 mM LiCl; immunoblot with anti-GFP, anti-mouse IgG and anti-α-tubulin
[1] = molecular target: Sib3-TAP (full-length wild-type N5-hydroxyornithine-N5-transacetylase Sib3, TAP-tagged) (S. pombe) (UniProt Q9UUE3)
[2] = molecular target: Sib3E286A-TAP (S. pombe) (UniProt Q9UUE3)
[3] = molecular target: Sib3H248A-TAP (S. pombe) (UniProt Q9UUE3)

binding [1]: binds
B1: 149Sib2345-GFP (domain or fragment, UniProt Q9P7T0 149-345)
chain: MQAKNIIITTGCQPYIPPLYKSVDSPLIVHSSKFMSDHSQKLLRNSKHGILVVGCGQSAAEIWKHCHYSLDPKTPLAMCFRNLAPVPSDSSPFVNSLYFDSHNSHWWYNLPTEARLKGLSVGRTTNYSVVKESLLEEMFKECYLQKLRYGQEFHQIMGDTDIQSIKNEGDHLVVQLTSQMDKSKKPETRKIDVLYVAT

binding [1]: binds
B2: 281Sib2358-GFP (domain or fragment, UniProt Q9P7T0 281-358)
chain: MLLEEMFKECYLQKLRYGQEFHQIMGDTDIQSIKNEGDHLVVQLTSQMDKSKKPETRKIDVLYVATGYDHESFDVLMSS

binding [1]: binds
B3: 1Sib2349-GFP (domain or fragment, UniProt Q9P7T0 1-349)
chain: MTEPLDLAIIGFGPASLSFLIALHDHSEEPLKNKKIRVFEKLPTFSWHEGMLIPGSNMQISFVKDLATPRDPTSYFTFLNYLHSHGQERLSGFLNMSTLEPSRYEYHDYLCWAASHFSKFVEYNANINKLHYDAATDLYIVGHGDTQWQAKNIIITTGCQPYIPPLYKSVDSPLIVHSSKFMSDHSQKLLRNSKHGILVVGCGQSAAEIWKHCHYSLDPKTPLAMCFRNLAPVPSDSSPFVNSLYFDSHNSHWWYNLPTEARLKGLSVGRTTNYSVVKESLLEEMFKECYLQKLRYGQEFHQIMGDTDIQSIKNEGDHLVVQLTSQMDKSKKPETRKIDVLYVATGYDH

binding [1]: binds
B4: 82Sib2431-GFP (domain or fragment, UniProt Q9P7T0 82-431)
chain: MLHSHGQERLSGFLNMSTLEPSRYEYHDYLCWAASHFSKFVEYNANINKLHYDAATDLYIVGHGDTQWQAKNIIITTGCQPYIPPLYKSVDSPLIVHSSKFMSDHSQKLLRNSKHGILVVGCGQSAAEIWKHCHYSLDPKTPLAMCFRNLAPVPSDSSPFVNSLYFDSHNSHWWYNLPTEARLKGLSVGRTTNYSVVKESLLEEMFKECYLQKLRYGQEFHQIMGDTDIQSIKNEGDHLVVQLTSQMDKSKKPETRKIDVLYVATGYDHESFDVLMSSLFPNSQGAQISEEYCVLNAPSKQGKVYVAGITSNQHGIGETLLSWAAIRAGGLAKELFGPSKPTARVPASYLN

binding [1]: binds | binding [2]: binds | binding [3]: binds
B5: Sib2-GFP (full-length ornithine-N5-oxygenase Sib2, GFP-tagged) (enzyme, UniProt Q9P7T0 1-431)
chain: MTEPLDLAIIGFGPASLSFLIALHDHSEEPLKNKKIRVFEKLPTFSWHEGMLIPGSNMQISFVKDLATPRDPTSYFTFLNYLHSHGQERLSGFLNMSTLEPSRYEYHDYLCWAASHFSKFVEYNANINKLHYDAATDLYIVGHGDTQWQAKNIIITTGCQPYIPPLYKSVDSPLIVHSSKFMSDHSQKLLRNSKHGILVVGCGQSAAEIWKHCHYSLDPKTPLAMCFRNLAPVPSDSSPFVNSLYFDSHNSHWWYNLPTEARLKGLSVGRTTNYSVVKESLLEEMFKECYLQKLRYGQEFHQIMGDTDIQSIKNEGDHLVVQLTSQMDKSKKPETRKIDVLYVATGYDHESFDVLMSSLFPNSQGAQISEEYCVLNAPSKQGKVYVAGITSNQHGIGETLLSWAAIRAGGLAKELFGPSKPTARVPASYLN

binding [1]: binds
B6: 1Sib2279-GFP (domain or fragment, UniProt Q9P7T0 1-279)
chain: MTEPLDLAIIGFGPASLSFLIALHDHSEEPLKNKKIRVFEKLPTFSWHEGMLIPGSNMQISFVKDLATPRDPTSYFTFLNYLHSHGQERLSGFLNMSTLEPSRYEYHDYLCWAASHFSKFVEYNANINKLHYDAATDLYIVGHGDTQWQAKNIIITTGCQPYIPPLYKSVDSPLIVHSSKFMSDHSQKLLRNSKHGILVVGCGQSAAEIWKHCHYSLDPKTPLAMCFRNLAPVPSDSSPFVNSLYFDSHNSHWWYNLPTEARLKGLSVGRTTNYSVVKE

binding [1]: binds
B7: 174Sib2431-GFP (domain or fragment, UniProt Q9P7T0 174-431)
chain: MLIVHSSKFMSDHSQKLLRNSKHGILVVGCGQSAAEIWKHCHYSLDPKTPLAMCFRNLAPVPSDSSPFVNSLYFDSHNSHWWYNLPTEARLKGLSVGRTTNYSVVKESLLEEMFKECYLQKLRYGQEFHQIMGDTDIQSIKNEGDHLVVQLTSQMDKSKKPETRKIDVLYVATGYDHESFDVLMSSLFPNSQGAQISEEYCVLNAPSKQGKVYVAGITSNQHGIGETLLSWAAIRAGGLAKELFGPSKPTARVPASYLN

binding [1]: binds
B8: 1Sib2135-GFP (domain or fragment, UniProt Q9P7T0 1-135)
chain: MTEPLDLAIIGFGPASLSFLIALHDHSEEPLKNKKIRVFEKLPTFSWHEGMLIPGSNMQISFVKDLATPRDPTSYFTFLNYLHSHGQERLSGFLNMSTLEPSRYEYHDYLCWAASHFSKFVEYNANINKLHYDAA
